Results are given in words; binding and its absence hold for the method and conditions named. In cells and extracts the contact can be indirect. Some entries that bind do so weakly or less than the wild type. For some assays here: Tags and fused reporters may be left off the sequences shown.
What was measured:
Flag-RNF112 = biological target: T1, Flag-RNF112 (UniProt Q9ULX5); experiment: co-IP; 293T cells transfected with the respective plasmids for 48 h, MG132 (10 µM) for 8 h; lysis in IP buffer 1 h at 4 °C; anti-Flag or anti-HA antibody overnight at 4 °C, magnetic beads 2 h; Western blot
T1 sequence: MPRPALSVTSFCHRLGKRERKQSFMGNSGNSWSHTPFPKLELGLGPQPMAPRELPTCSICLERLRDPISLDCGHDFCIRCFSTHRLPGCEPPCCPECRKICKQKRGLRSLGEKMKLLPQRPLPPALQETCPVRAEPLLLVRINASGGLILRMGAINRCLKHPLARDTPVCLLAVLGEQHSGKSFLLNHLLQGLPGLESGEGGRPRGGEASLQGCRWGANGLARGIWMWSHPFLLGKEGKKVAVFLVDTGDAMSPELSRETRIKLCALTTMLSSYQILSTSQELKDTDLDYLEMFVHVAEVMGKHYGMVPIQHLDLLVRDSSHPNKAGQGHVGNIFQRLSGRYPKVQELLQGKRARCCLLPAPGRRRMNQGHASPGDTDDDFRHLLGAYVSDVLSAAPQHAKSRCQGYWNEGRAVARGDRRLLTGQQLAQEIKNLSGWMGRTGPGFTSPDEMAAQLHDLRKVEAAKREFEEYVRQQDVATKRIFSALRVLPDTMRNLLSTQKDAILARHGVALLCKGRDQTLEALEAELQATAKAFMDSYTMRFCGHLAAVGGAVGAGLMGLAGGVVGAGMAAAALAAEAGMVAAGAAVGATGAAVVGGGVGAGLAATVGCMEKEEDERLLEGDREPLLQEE

Protein sequences, listed by entry. Tags and fused reporters are not part of them. Residues count along the entry.
UniProt P01106, residues 16-454: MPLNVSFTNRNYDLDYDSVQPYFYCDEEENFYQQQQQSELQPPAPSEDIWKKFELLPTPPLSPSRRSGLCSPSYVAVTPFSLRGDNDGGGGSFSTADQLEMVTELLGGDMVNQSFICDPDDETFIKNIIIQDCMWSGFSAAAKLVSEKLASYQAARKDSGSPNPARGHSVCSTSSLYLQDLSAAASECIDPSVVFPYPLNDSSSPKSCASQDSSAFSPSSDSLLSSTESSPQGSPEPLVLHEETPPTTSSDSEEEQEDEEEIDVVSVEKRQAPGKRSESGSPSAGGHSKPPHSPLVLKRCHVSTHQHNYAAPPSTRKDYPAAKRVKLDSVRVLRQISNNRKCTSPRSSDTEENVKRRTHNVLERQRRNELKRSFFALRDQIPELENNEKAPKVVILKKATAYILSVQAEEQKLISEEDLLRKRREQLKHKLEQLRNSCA

[1] = biological target: T2, RNF112 (endogenous, 293T cells) (human (endogenous in 293T)) (UniProt Q9ULX5); experiment: co-IP; endogenous proteins; IP with RNF112 antibody in 293T cell lysates; Western blot
T2 sequence: T1 sequence

Substance	binding (Flag-RNF112)	binding [1]
HA-c-Myc (from UniProt P01106-1 1-439)	binds	–
c-Myc (endogenous, 293T cells) (from UniProt P01106-1 1-439)	–	binds

— article PMC12120744
